This passage reports AC50 results from PubChem BioAssay AID662 (National Center for Advancing Translational Sciences (NCATS), 2007).

Some of the results follow. Shown are side measurements of this screen, not its main read-out; they come without a call. Compounds called inactive in the main read-out are mostly missing here. Potencies come from curve fits of mixed quality, noted in brackets.

The test can be described thus: Cell signaling CRE-BLA (Fsk stim). Conditions: CHO CRE-bla reporter (cAMP response element driving beta-lactamase), forskolin EC10, beta-lactamase ratio; measured here: 460 nm blue channel. The method, boiled down: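 Beta-lactamase reporter under a cAMP responsive element in CHO cells; compounds tested in titration series against EC10 NKH 477, 3 h at 37 °C. Read-out: CCF4 FRET ratio 460nm/530nm (excitation 405nm) giving %Activity, fitted to AC50.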
`COC(=O)c1cc(OC)c(OC)cc1NC(=O)c1ccc(Br)o1`: the AC50 was 6.31 µM [rising, partial curve].

As to `N#Cc1cc2cc3c(cc2nc1N1CCCCC1)OCCO3`, the AC50 is 12.6 µM [rising, partial curve].

In the case of `O=C(c1cc2n(n1)C(C(F)(F)F)CC(c1ccco1)N2)N1CCc2ccccc2C1` (centres undefined), the AC50 is 10 µM [falling, single point].

Regarding `CCOc1ccc(Nc2oc(Cc3ccccc3)nc2C#N)cc1`, the AC50 was 10 µM [rising, partial curve].

With `CCNc1nc(N)c(C(=O)c2ccc(Cl)s2)s1`, the AC50 was 6.31 µM [falling, full curve].

Consider `CCCCc1ccc(NC(=O)c2c(C)noc2C)cc1`, for which the AC50 is 10 µM [falling, partial curve].

Regarding `CCOc1ccc2nc(SCC(=O)NCc3ccco3)sc2c1`, the AC50 was 20 µM [rising, single point].

`O=C(CSc1ccc2nnc(-c3ccccn3)n2n1)NCc1ccco1`: the AC50 was 25.1 µM [falling, single point].

Consider `O=S1(=O)N=CN(Cc2cccc(F)c2)c2ccccc21`, for which the AC50 was 0.398 µM [rising, full curve].

For `CCOCCCNC(=O)c1cc2c(=O)n3cccc(C)c3nc2n1C`, the AC50 is 0.251 µM [rising, full curve].

On to `CCOCCCNC(=O)c1c(C)[nH]c(C(=O)OCC)c1C`, for which the AC50 was 20 µM [falling, partial curve, poor fit].

`COc1ccc(-c2nc3cnc(N(C)C)nc3n(Cc3cccs3)c2=O)cc1`: the AC50 is 12.6 µM [rising, partial curve].

Take `N#CC1=C(N)Oc2cc(N)ccc2C1C1CCCCC1` (centres undefined): the AC50 is 3.98 µM [falling, full curve, poor fit].

Regarding `COc1ccc(C(=O)CSc2nnc(-c3cc4ccccc4cc3O)n2Cc2ccco2)cc1`, the AC50 was 12.6 µM [falling, single point].

In the case of `O=C(O)c1[nH]c2c([N+](=O)[O-])cc([N+](=O)[O-])cc2c1C(=O)O`, the AC50 is 0.0251 µM [rising, full curve, poor fit].

Consider `NC(=O)COc1c(-c2ccccc2)oc2ccccc2c1=O`, for which the AC50 was 5.01 µM [rising, partial curve].

For the compound `COc1ccc(NC(=O)CSc2nnc(-c3ccccn3)n2N)cc1Cl`, the half-maximal activity concentration (AC50) was 10 µM [rising, single point].

Turning to `Cc1noc(C)c1-c1nccc(NCc2cccs2)n1`, the AC50 is 6.31 µM [rising, partial curve].

In the case of `CCC1Sc2ccccc2N(CC(=O)NCc2ccc3c(c2)OCO3)C1=O` (centres undefined), the AC50 is 0.00631 µM [falling, full curve, poor fit].

`O=C1CC(N2CCN(c3ccccc3F)CC2)C(=O)N1c1ccc2c(c1)OCCO2` (centres undefined): the AC50 was 0.126 µM [falling, full curve, poor fit].

Turning to `c1ccc2c(c1)nc(NCC1CCCO1)c1nnnn12` (centres undefined), the AC50 was 10 µM [rising, single point].

As for `CNc1ccnc(-c2c(C)noc2C)n1`, the AC50 was 3.98 µM [rising, single point].

With `O=C(CSc1nc2ccccc2c(=O)[nH]1)N1CCCCC1`, the AC50 was 12.6 µM [rising, single point].

Turning to `O=C(Nc1cccc(Cl)c1)N1CCN(c2ncccn2)CC1`, the AC50 is 12.6 µM [rising, partial curve].

For the compound `NC(=O)/N=N/C(N)=O`, the AC50 was 2.51 µM [rising, full curve].

With `CSc1nnc2c3c4c(sc3nc(-n3nc(C)cc3C)n12)COC(C)(C)C4`, the AC50 was 12.6 µM [rising, single point].

Turning to `Cc1cc(C)nc(-n2nc(C)c(Sc3ccc(F)cc3)c2N)n1`, the AC50 is 2 µM [rising, partial curve].

With `CCOC(=O)C1CCCN(C(=O)Cn2sc3nc(C)cc(C)c3c2=O)C1` (centres undefined), the AC50 is 25.1 µM [falling, single point].

As to `COc1cc2c(cc1OC)C(C)N(C(=O)CCN1C(=O)C3C4C=CC(C4)C3C1=O)CC2` (centres undefined), the concentration at half-maximal activity (AC50) is 0.01 µM [falling, full curve, poor fit].

Take `COc1ccc(S(=O)(=O)N(CCCN2CCOCC2)Cc2ccc(OC)c(OC)c2)cc1`: the AC50 was 2.51 µM [rising, single point].

Consider `O=c1cc(CSc2nc3cc(Cl)ccc3o2)nc2sccn12`, for which the concentration at half-maximal activity (AC50) is 10 µM [rising, partial curve].

For the compound `Clc1ccc2nc(CSc3nnc(-c4c[nH]c5ccccc45)o3)cn2c1`, the concentration at half-maximal activity (AC50) is 1.58 µM [rising, full curve, poor fit].

On to `CCN(C(=O)CCc1nc(-c2ccc(OC)cc2)no1)c1cc(OC)ccc1OC`, for which the half-maximal activity concentration (AC50) is 25.1 µM [rising, partial curve].

With `O=C(COc1ccc(Cl)cc1Cl)Nc1ccccn1`, the AC50 is 1.58 µM [rising, partial curve, poor fit].

In the case of `Cn1cc(-c2nc3cncnc3n(CCN)c2=O)c2ccccc21`, the AC50 is 10 µM [rising, partial curve].

In the case of `CC1(C)C(=O)Nc2ccccc2N1C(=O)COc1ncnc2ccccc12`, the AC50 is 5.01 µM [falling, single point].

Take `CCc1cc2c(-c3ccccc3)cc(=O)oc2c(CN2CCOCC2)c1O`: the AC50 is 1.26 µM [rising, full curve].

`COc1ccc(Cn2nnnc2C(c2cccs2)N2CCN(c3ccccc3)CC2)cc1` (centres undefined): the half-maximal activity concentration (AC50) is 25.1 µM [falling, single point].

As for `CCCn1c(NC(=O)c2ccc(C)cc2)nc2ccccc21`, the AC50 is 12.6 µM [falling, single point].

On to `O=C(Cn1c(=O)n(-c2ccccc2)c(=O)c2sccc21)N1CCCC1`, for which the AC50 is 0.2 µM [falling, full curve].

On to `CCOc1ccc(OCC)c(NC(=O)C2CCN(S(=O)(=O)c3cccc4nonc34)CC2)c1`, for which the AC50 is 0.0251 µM [falling, full curve].

Regarding `COC(=O)C1=C(C)Nc2nnnn2C1c1cc(OC)ccc1OC` (centres undefined), the AC50 is 0.316 µM [rising, full curve].

Regarding `CN(CCNC(=O)c1ccc(N2CCCC2=O)cc1)CCc1ccccc1`, the concentration at half-maximal activity (AC50) was 10 µM [falling, partial curve].

Turning to `CCn1c(=S)sc2c(=O)n(-c3ccccc3)c(SC)nc21`, the AC50 is 10 µM [rising, partial curve].

With `CCNC(=O)c1ccc2c(c1)S(=O)(=O)c1ccccc1C2=O`, the AC50 is 10 µM [rising, partial curve].

In the case of `COc1ccccc1N(CC(=O)NCCSC(C)(C)C)S(C)(=O)=O`, the AC50 was 0.00794 µM [falling, full curve, poor fit].

As for `CC1=Nc2ncnn2C(c2ccccc2)/C1=N\O` (centres undefined), the AC50 is 20 µM [falling, partial curve, poor fit].

For the compound `CC(C)(C)c1ccc([C@@H](O)CCCN2CCC(C(O)(c3ccccc3)c3ccccc3)CC2)cc1`, the AC50 is 12.6 µM [falling, single point].

As for `CC(C)(C)NC(=O)CSc1ncnc2c1nnn2Cc1ccccc1Cl`, the half-maximal activity concentration (AC50) was 5.01 µM [falling, partial curve].

Regarding `CCCS(=O)(=O)NCCc1cc2c(OC)ccc(OC)c2[nH]c1=O`, the AC50 is 2.51 µM [falling, single point].

For `Cc1cc(C(=O)NCCCn2ccnc2)sc1-c1ccccc1`, the AC50 was 0.00316 µM [falling, full curve, poor fit].

`COC(=O)c1ccc(C(NC(=O)OCc2ccccc2)/C(=C/[C@@H](C)C(=O)NCc2ccc(-c3ccccc3)cc2)c2cccnc2)cc1` (some centres undefined): the AC50 was 12.6 µM [falling, single point].

`CN1C(=O)C(O)(C2COC(C)(C)CC2=O)c2cc(Br)ccc21` (centres undefined): the AC50 was 12.6 µM [rising, single point].

For the compound `COc1ccc(-c2ccc(=O)n(CC(=O)Nc3cccc(O)c3)n2)cc1OC`, the concentration at half-maximal activity (AC50) is 12.6 µM [rising, partial curve].

Turning to `Cc1nnc2c(-c3ccccc3)nc3ccccc3n12`, the AC50 is 5.01 µM [rising, partial curve].

Turning to `CN1CCN(c2ncnc3ccc(-c4ccc(C(=O)N(C)C)cc4)cc23)CC1`, the AC50 was 3.16 µM [rising, full curve, poor fit].

For the compound `Nc1nsc2ccccc12`, the AC50 is 1.58 µM [falling, full curve].

On to `Cc1nc2nc(SCC(=O)NCc3ccco3)nn2c(C)c1Cc1c(F)cccc1Cl`, for which the AC50 was 20 µM [rising, single point].

`COc1cc2nc(SCC(=O)NCCc3ccccc3)n(Cc3ccco3)c(=O)c2cc1OC`: the AC50 is 10 µM [rising, partial curve].

Take `COc1cccc(C2C3=C(CCCC3=O)Nc3nc4ccccc4n32)c1OC` (centres undefined): the AC50 was 0.02 µM [rising, full curve, poor fit].

As for `CCOC(=O)C1CCCN(C(=O)c2ccccc2Oc2ccccc2)C1` (centres undefined), the AC50 was 1 µM [falling, partial curve, poor fit].

As for `Cc1ccc(Nc2nc3nonc3[nH]c2=O)cc1`, the AC50 is 10 µM [falling, partial curve].

As for `O=S1(=O)N=C2CCCN2C(c2ccc(F)cc2)N1` (centres undefined), the AC50 was 12.6 µM [falling, partial curve].

As to `Cc1ccc(-c2cc(-c3ccccc3Cl)c(C#N)c(N)n2)o1`, the AC50 is 20 µM [rising, single point].

With `COc1ccccc1CNC(=O)CN(c1ccc(C)cc1)S(=O)(=O)c1c(C)nn(C)c1C`, the concentration at half-maximal activity (AC50) is 0.00398 µM [falling, full curve, poor fit].

For `CC1CC1C(=O)OCc1cc(=O)n2cc(Br)ccc2n1` (centres undefined), the half-maximal activity concentration (AC50) is 3.98 µM [falling, single point].

For `c1cn2cc(-c3ccc4c(c3)OCO4)nc2s1`, the AC50 is 0.126 µM [rising, full curve].

On to `C=CCn1c(CC(=O)OC)csc1=Nc1ccc(C(C)=O)cc1`, for which the AC50 is 7.94 µM [rising, partial curve].

Take `N#CCCn1c(=O)c(-c2ccc(F)cc2)nc2cnc(Oc3cccc(Cl)c3)nc21`: the concentration at half-maximal activity (AC50) is 12.6 µM [rising, partial curve].

What is called AC50 is the midpoint of the concentration-response curve, whichever way the signal moves.
